{"sequences": {"note": "The chains behind the UniProt entries cited, without tags or fusion partners.", "UniProt P29466": "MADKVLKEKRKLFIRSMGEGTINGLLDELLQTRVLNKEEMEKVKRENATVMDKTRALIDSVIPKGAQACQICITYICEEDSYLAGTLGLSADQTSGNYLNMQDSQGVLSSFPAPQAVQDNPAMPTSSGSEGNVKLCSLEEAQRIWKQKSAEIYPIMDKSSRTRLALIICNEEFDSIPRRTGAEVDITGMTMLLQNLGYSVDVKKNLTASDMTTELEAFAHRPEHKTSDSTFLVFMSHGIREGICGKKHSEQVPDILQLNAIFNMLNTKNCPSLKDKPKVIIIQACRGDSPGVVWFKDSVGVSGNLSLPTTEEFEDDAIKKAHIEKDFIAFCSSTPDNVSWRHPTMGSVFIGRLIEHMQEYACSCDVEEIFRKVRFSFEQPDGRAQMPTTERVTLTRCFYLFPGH"}, "source": "paper PMC10293252", "key": {"full-length NOD1-FLAG": {"molecular_target": "T1, full-length NOD1-FLAG (UniProt Q9Y239)", "T1 sequence": "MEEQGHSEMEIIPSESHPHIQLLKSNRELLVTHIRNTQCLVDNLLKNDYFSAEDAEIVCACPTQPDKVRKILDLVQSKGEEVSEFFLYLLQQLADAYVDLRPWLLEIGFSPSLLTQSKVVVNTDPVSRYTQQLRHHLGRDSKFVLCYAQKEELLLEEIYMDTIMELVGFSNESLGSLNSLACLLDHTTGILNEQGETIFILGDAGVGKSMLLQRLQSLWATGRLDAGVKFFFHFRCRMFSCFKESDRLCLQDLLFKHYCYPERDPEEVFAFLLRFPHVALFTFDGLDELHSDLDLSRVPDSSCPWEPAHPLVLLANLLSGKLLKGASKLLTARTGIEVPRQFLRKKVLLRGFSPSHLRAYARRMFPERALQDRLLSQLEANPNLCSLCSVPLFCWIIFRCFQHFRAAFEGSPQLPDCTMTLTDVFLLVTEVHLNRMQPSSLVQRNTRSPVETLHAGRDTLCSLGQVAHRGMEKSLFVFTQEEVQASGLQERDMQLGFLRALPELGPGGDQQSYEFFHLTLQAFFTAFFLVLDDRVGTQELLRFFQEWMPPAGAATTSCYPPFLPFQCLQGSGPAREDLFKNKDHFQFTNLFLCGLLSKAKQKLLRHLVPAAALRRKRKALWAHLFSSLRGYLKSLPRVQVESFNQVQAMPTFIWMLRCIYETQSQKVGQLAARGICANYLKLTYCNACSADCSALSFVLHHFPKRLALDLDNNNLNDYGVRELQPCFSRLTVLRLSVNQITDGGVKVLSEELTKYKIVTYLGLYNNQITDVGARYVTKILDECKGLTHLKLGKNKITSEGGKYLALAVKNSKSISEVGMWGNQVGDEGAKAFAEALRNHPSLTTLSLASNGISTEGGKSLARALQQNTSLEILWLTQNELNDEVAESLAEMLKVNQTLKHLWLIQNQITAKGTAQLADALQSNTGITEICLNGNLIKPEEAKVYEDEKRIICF", "assay": "co-IP; lysates of transfected NOD1 KO AGS cells (stimulated with H. pylori or left untreated) immunoprecipitated with anti-FLAG antibody; blot with anti-FLAG and anti-caspase-1"}, "NOD1-mOrange [1]": {"molecular_target": "T2, NOD1-mOrange (UniProt Q9Y239)", "T2 sequence": "T1 sequence", "assay": "FRET or BRET; FLIM-FRET in live shNOD1 AGS cells transfected with NOD1-mOrange and caspase-1-GFP, stimulated with H. pylori 251; fall of the donor's fluorescence lifetime"}, "NOD1-mOrange [2]": {"molecular_target": "T2, NOD1-mOrange", "assay": "condition: only cells not stimulated with H. pylori; FRET or BRET; FLIM-FRET in live shNOD1 AGS cells transfected with NOD1-mOrange and caspase-1-GFP, left untreated (no H. pylori)"}}, "note": "Results are given in words; binding and its absence hold for the method and conditions named. Binding seen in cells or lysates may run through a third protein. Some results given as binding are weak or reduced against the parent protein; the word gives no strength. For part of these data: Sequences can lack the tags named with a protein.", "data": [{"substance": "endogenous caspase-1 (from UniProt P29466 1-404)", "values": [{"measurement": "binding", "setting": "full-length NOD1-FLAG", "value": "binds"}]}, {"substance": "caspase-1-GFP (from UniProt P29466 1-404)", "values": [{"measurement": "binding", "setting": "NOD1-mOrange [1]", "value": "binds"}, {"measurement": "binding", "setting": "NOD1-mOrange [2]", "value": "no binding"}]}]}
